# Experimental data: PubChem BioAssay AID493014 (National Center for Advancing Translational Sciences (NCATS), 2011)
# The list shows a part of the results. Further columns of the screen follow, without active or inactive calls. Compounds called inactive in the main read-out are mostly missing here. Potencies come from curve fits of mixed quality, noted in brackets.
# Assay: qHTS Assay to Find Inhibitors of Chronic Active B-Cell Receptor Signaling
# Settings: ABC-DLBCL IkBa-CBG/CBR reporter, luminescence ratio (green luciferase fused to IkBa over red control in TMD8 lymphoma cells), 4 h
# In short: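 Compounds up to 46 uM were incubated four hours with TMD8 cells whose green CBG68 luciferase is fused to IkappaBalpha; red CBR luminescence normalised the signal, and concentration-effect curves were fitted to fusion, red and ratio data.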
# [1] = measured here: CBR red luminescence, cell number
# [2] = measured here: IkBa-CBG green luminescence
SMILES,AC50 [1],AC50 [2]
Cn1c(SCC(=O)N2c3ccccc3Sc3ccccc32)nc2ccccc21,"0.00461 µM [rising, full curve, poor fit]","20.6 µM [falling, partial curve, poor fit]"
O=S(=O)(c1ccc(F)cc1)N1CCN(Cc2ccccc2C(F)(F)F)CC1,"4.61 µM [falling, single point]",
CCN(CC)CCCNc1nc2cc(OC)c(OC)cc2c2nc(-c3ccccc3)nn12,"20.6 µM [falling, partial curve, poor fit]",
Cc1cc(C)cc(Nc2cc(=O)n(C3CCCCC3)c(=O)[nH]2)c1,"35.5 µM [rising, single point]",
COc1ccccc1NC(=O)c1cc2cc(Br)ccc2cc1O,"0.112 µM [falling, full curve]",
Nc1nc(N2CCOCC2)nc2ccccc12,"0.146 µM [falling, full curve, poor fit]",
COc1ccc(CNC(=O)CC2Sc3ccccc3NC2=O)cc1 (stereo not given),"3.16 µM [rising, partial curve, poor fit]",
Cc1ccc(NC(=S)N=Nc2c(O)n(C)c3ccc(S(=O)(=O)N4CCOCC4)cc23)cc1C,"29.1 µM [rising, single point]",
Cc1nn(C(C)(C)C)c(NC(=O)c2ccccc2)c1C#N,"35.5 µM [rising, single point]",
CNC(=O)CC1C(=O)N(c2ccc(F)cc2)C(=S)N1NC(=O)c1ccc(Cl)cc1 (stereo not given),"7.94 µM [falling, partial curve]",
O=C(NCCc1ccccc1)C1CCN(S(=O)(=O)c2ccc(Br)s2)CC1,"3.66 µM [rising, partial curve, poor fit]",
C[C@@H]1CCC(=O)N(CC[C@H](N=[N+]=[N-])c2ccccc2)CC1,"12.6 µM [rising, partial curve, poor fit]",
CCOc1ccccc1NC(=O)C1CCCN(S(=O)(=O)c2ccccc2)C1 (stereo not given),"35.5 µM [falling, partial curve, poor fit]",
COc1ccc(S(=O)(=O)N(Cc2nc3ccccc3c(=O)[nH]2)C2CCCC2)cc1,"32.6 µM [falling, single point]",
COc1cc2cc(C(=O)NCCc3ccccc3)[nH]c2cc1OC,"11.2 µM [rising, partial curve]",
CCOC(=O)c1ccccc1NC(=O)c1c(F)c(F)c(F)c(F)c1F,"23.1 µM [falling, single point]",
Cc1ccnc(SCC(=O)c2ccc(Br)cc2)c1C#N,"23.1 µM [falling, single point]",
O=C(/C=C/c1c(F)cccc1Cl)c1ccc(F)cc1,"31.6 µM [rising, single point]",
O=C(c1ccc(Cn2cc(Br)cn2)o1)N1N=C(C(F)F)CC1(O)C(F)F (stereo not given),"14.6 µM [falling, single point]",
Cc1cc(NC(=O)Cc2ccccc2)ccc1NC(=O)c1cccs1,"12.6 µM [rising, partial curve, poor fit]",
COc1cccc(Nc2nnc(-c3cc4ccc(O)cc4oc3=O)s2)c1,"0.355 µM [falling, full curve, poor fit]",

# 4 entries from above, sorted by length of the SMILES, largest number first.
SMILES,AC50 [1],AC50 [2]
COc1ccc(S(=O)(=O)N(Cc2nc3ccccc3c(=O)[nH]2)C2CCCC2)cc1,"32.6 µM [falling, single point]",
Cc1cc(NC(=O)Cc2ccccc2)ccc1NC(=O)c1cccs1,"12.6 µM [rising, partial curve, poor fit]",
Cc1nn(C(C)(C)C)c(NC(=O)c2ccccc2)c1C#N,"35.5 µM [rising, single point]",
COc1ccccc1NC(=O)c1cc2cc(Br)ccc2cc1O,"0.112 µM [falling, full curve]",

# Next part:

SMILES,AC50 [1],AC50 [2]
COc1ccc(/C=C/C(=O)N2CCNC(=O)C2)c(OC)c1,"28.2 µM [falling, single point]",
Cc1cccc(-n2cnc3cc(C(=O)N4CCCCC4)ccc32)c1,"3.55 µM [rising, single point]",
Nc1nc(CSC(=S)N2CCCCC2)nc(Nc2ccccc2)n1,"35.5 µM [falling, single point]",
Cc1cccc(NC(=O)CCN2C(=O)c3ccccc3S2(=O)=O)c1C,"6.31 µM [falling, single point]",
COc1ccccc1CN(C(=O)CNC(=O)c1ccco1)C(C(=O)NCC1CCCO1)c1ccccc1 (stereo not given),"6.31 µM [falling, single point]",
COc1cccc(/C=N/n2cnc3c(cnn3-c3ccccc3)c2=O)c1,"3.98 µM [rising, partial curve, poor fit]",
CN(C)c1ccc(/C=C/c2nnnn2-c2ccccc2)cc1,"29.1 µM [falling, single point]",
C=CCn1c(-c2ccc(OC)c(OC)c2)cs/c1=N\c1ccccn1,"0.731 µM [rising, partial curve]",
COc1cc(NC(=O)c2ccc(COc3ccccc3Br)o2)cc(OC)c1OC,"29.1 µM [falling, single point]",
O=C1N=c2ccccc2=C1c1sc(Nc2cccc(O)c2)nc1O,"35.5 µM [falling, single point]",
COc1ccccc1C(=O)N1CCN(C(=O)c2ccncc2)CC1,"6.51 µM [falling, single point]",
CC(C)[C@@H](CO)NC(=O)c1ccc2c3n(nc2c1)-c1ccccc1CO3,"11.2 µM [falling, partial curve, poor fit]",
COc1ccc(NS(=O)(=O)c2cccc(N/C(=N\S(=O)(=O)c3ccccc3)c3ccc(F)cc3)c2)cc1,"29.1 µM [falling, single point]",
COc1ccc(C(=O)CSc2nnc(COc3ccccc3)n2Cc2ccco2)cc1,"35.5 µM [falling, single point]",
CCN(CC)CCn1c(NCc2ccc3c(c2)OCO3)nc2ccccc21,"14.1 µM [falling, single point]",
COc1ccc(-c2cc3nc(C)c(CCC(=O)NCc4ccco4)c(C)n3n2)c(OC)c1,"5.8 µM [falling, partial curve]",
COc1ccc2ccc3c(c2c1)N=CC1(O3)N(C)c2ccccc2C1(C)C (stereo not given),"2.59 µM [falling, full curve, poor fit]","23.1 µM [falling, partial curve, poor fit]"
Cc1ccccc1OCCC(=O)OCC(=O)Nc1ccc(N2CCOCC2)cc1,"7.94 µM [falling, partial curve, poor fit]",
Cc1ccc(NC(=O)CN(Cc2ccco2)Cc2ccccc2O)cc1C,"35.5 µM [falling, partial curve, poor fit]",
O=C(Nc1ccc(F)cc1)C1CCCN1S(=O)(=O)c1ccc(Br)cc1 (stereo not given),"0.282 µM [rising, full curve, poor fit]",
CC(NC(=O)NC(=O)c1cccc([N+](=O)[O-])c1)C1CC1 (stereo not given),"35.5 µM [falling, single point]",

SMILES,AC50 [1],AC50 [2]
Cc1cc(N/N=C/c2ccc(O)cc2O)nc(-c2ccccc2O)n1,"5.17 µM [falling, full curve, poor fit]",
COc1ccc2[nH]c(C(=O)N/N=C/c3ccccc3OC)cc2c1,"11.2 µM [falling, partial curve, poor fit]",
O=C1OC(c2ccccc2)=C/C1=C/N1CCCCC1,"4.47 µM [rising, partial curve, poor fit]",
CCCc1ccc(-c2ccc(F)c(N)c2)nc1,"11.2 µM [falling, single point]",
Cc1ccc(NC(=O)C2SC(=Nc3ccccc3)C(C(=O)Nc3ccc(Cl)cc3)=C2N)cc1 (stereo not given),"14.1 µM [falling, single point]",
COc1ccc(Cc2nnc(-c3ccccc3)o2)cc1,"1.12 µM [rising, partial curve, poor fit]",
COC(=O)c1ccc(C(=O)OC)c(NC(=O)N2c3ccccc3Sc3ccccc32)c1,"25.9 µM [rising, single point]",
COc1ccccc1-c1cc(C(F)(F)F)nc(S(=O)(=O)CCCC(=O)Nc2cccnc2Cl)n1,"11.2 µM [falling, partial curve]","5.62 µM [rising, partial curve, poor fit]"
CCS(=O)(=O)N1Cc2ccccc2CC1C(=O)Nc1nc2ccccc2[nH]1 (stereo not given),"5.01 µM [falling, partial curve, poor fit]",
O=C(N/N=C1/CC2C=CCC12)c1ccc(Br)o1 (stereo not given),"11.6 µM [falling, partial curve, poor fit]",
CCOC(=O)C(=CNc1ccc(-c2ccco2)c(Cl)c1)C(=O)OCC,"20 µM [falling, partial curve, poor fit]",
O=S(=O)(NC1CCCCC1N1CCC(O)CC1)c1ccc(Cl)cc1 (stereo not given),"10 µM [rising, partial curve, poor fit]",
COC(=O)C(C(C)=O)C1=C/C(=N\S(=O)(=O)c2ccc(C)cc2)c2ccccc2C1=O (stereo not given),"11.6 µM [falling, partial curve, poor fit]",
COc1ccc(OC)c(NC(=O)COC(=O)/C=C/c2c(C)nn(C3CCS(=O)(=O)C3)c2Cl)c1 (stereo not given),"7.08 µM [rising, partial curve, poor fit]",
COc1ccc(C(C)(C)C)cc1NC(=O)COc1ccc(-c2nnco2)cc1,"18.4 µM [rising, single point]",
CC(=O)c1cccc(NC(=O)C(Sc2ncnc3ccccc23)c2ccccc2)c1 (stereo not given),"32.6 µM [falling, single point]",
S=C1NCN(Cc2cccnc2)CN1c1cccc2ccccc12,"7.08 µM [falling, full curve, poor fit]",
Cc1onc(-c2ccccc2Cl)c1C(=O)Nc1cnn(Cc2ccccc2)c1,"13 µM [falling, single point]",
CCOc1ccc(NC(=O)CN(C)C(=O)CCN2C(=O)C3CC=CCC3C2=O)cc1OCC (stereo not given),"3.26 µM [rising, full curve]",
CCCC(Oc1ccc(Br)cc1)c1nc2c3cc(OC)c(OC)cc3nc(=S)n2[nH]1 (stereo not given),"11.2 µM [rising, partial curve, poor fit]",
